Experimental findings from paper PMC11442847 are described below.

No constants are given. Whether binding was seen depends on the method and setting. Binding seen in cells or lysates may run through a third protein. A result given as binding can be weak or reduced; the word gives no strength.

Common to all, as to assay: cross-linking; in cellulo cross-linking with mass spectrometry (XL-MS): three million PEO-4, SKOV-3 or T1074 cells in 200 µL DPBS, 2 mM DSSO, 37 °C, 1 h; subcellular fractionation, FASP digestion (trypsin/Lys-C, chymotrypsin), nanoLC-MS/MS, XlinkX in Proteome Discoverer
The target in experiment [1] is T1, CNNM3 (human (endogenous in SKOV-3)) (UniProt Q8NE01).
T1 sequence: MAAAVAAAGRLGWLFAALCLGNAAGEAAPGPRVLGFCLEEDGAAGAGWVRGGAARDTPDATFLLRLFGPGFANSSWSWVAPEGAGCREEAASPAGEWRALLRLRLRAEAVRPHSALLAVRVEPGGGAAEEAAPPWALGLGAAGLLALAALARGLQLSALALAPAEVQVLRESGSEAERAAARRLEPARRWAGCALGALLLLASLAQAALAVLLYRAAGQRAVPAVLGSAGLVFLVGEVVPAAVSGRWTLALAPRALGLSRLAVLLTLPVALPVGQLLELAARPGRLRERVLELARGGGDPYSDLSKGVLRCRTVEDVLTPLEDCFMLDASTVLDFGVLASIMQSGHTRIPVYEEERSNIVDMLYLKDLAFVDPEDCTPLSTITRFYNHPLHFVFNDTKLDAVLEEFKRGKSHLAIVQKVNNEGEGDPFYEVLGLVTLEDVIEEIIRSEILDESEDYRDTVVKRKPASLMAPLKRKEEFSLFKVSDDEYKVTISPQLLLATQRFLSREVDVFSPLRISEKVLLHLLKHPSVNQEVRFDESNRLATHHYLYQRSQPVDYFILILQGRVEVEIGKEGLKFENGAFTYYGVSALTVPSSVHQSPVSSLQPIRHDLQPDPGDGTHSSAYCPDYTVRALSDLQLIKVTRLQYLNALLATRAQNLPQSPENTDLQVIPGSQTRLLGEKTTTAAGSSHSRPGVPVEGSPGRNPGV

Experiment [2] addresses T2, TMEM260 (human (endogenous in T1074)) (UniProt Q9NX78).
T2 sequence: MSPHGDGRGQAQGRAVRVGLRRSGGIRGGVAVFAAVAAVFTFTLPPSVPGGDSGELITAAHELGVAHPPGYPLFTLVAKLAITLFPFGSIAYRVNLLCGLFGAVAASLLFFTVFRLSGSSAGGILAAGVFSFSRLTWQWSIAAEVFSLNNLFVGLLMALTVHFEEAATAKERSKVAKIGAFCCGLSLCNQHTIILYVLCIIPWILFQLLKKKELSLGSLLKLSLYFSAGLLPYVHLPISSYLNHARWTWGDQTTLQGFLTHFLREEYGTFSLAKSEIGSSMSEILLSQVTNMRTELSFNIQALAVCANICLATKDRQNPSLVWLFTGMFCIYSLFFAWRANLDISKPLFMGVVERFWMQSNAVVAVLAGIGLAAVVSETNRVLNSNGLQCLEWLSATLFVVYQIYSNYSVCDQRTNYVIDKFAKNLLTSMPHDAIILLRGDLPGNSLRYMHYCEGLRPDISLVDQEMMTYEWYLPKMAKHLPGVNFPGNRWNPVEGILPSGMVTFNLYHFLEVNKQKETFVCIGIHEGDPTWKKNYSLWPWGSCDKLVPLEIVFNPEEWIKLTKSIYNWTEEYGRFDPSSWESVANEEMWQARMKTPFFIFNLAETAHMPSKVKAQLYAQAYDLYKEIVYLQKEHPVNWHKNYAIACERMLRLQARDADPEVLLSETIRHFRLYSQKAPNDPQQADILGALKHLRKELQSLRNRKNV

The target of experiment [3] is T3, POLD3 (human (endogenous in T1074 and PEO-4)) (UniProt Q15054).
T3 sequence: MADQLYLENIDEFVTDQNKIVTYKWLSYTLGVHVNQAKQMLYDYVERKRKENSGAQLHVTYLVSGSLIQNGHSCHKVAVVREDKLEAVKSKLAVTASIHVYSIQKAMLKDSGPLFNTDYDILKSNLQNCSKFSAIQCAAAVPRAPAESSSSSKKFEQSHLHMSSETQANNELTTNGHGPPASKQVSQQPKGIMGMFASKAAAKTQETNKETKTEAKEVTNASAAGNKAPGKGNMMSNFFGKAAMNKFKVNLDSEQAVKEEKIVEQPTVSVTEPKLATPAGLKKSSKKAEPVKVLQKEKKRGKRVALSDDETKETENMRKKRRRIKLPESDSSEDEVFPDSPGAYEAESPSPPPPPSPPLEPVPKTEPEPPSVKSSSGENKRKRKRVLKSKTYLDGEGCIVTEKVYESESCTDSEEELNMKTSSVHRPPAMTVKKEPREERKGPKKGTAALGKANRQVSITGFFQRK

For “AltProt IP_118499 (human (endogenous in SKOV-3))”, in experiment [1], the binding entry is “binds”. Take “AltProt IP_292259 (human (endogenous in T1074))”: the binding entry in experiment [2] is given as “binds”. With “AltProt IP_183088 (human (endogenous in T1074 and PEO-4))”, the binding result in experiment [3] is “binds”.
